Experimental findings from the supplement of paper PMC12819154, “High-throughput peptide-centric local stability assay extends protein–ligand identification to membrane proteins, tissues and bacteria” (Nature Structural & Molecular Biology, 2025) are described below.

By UniProt entry, the sequences of proteins in these tests, tags left out. Where a name states a change or a piece, a line headed by the entry shows the natural chain unless it says otherwise.
UniProt Q15596: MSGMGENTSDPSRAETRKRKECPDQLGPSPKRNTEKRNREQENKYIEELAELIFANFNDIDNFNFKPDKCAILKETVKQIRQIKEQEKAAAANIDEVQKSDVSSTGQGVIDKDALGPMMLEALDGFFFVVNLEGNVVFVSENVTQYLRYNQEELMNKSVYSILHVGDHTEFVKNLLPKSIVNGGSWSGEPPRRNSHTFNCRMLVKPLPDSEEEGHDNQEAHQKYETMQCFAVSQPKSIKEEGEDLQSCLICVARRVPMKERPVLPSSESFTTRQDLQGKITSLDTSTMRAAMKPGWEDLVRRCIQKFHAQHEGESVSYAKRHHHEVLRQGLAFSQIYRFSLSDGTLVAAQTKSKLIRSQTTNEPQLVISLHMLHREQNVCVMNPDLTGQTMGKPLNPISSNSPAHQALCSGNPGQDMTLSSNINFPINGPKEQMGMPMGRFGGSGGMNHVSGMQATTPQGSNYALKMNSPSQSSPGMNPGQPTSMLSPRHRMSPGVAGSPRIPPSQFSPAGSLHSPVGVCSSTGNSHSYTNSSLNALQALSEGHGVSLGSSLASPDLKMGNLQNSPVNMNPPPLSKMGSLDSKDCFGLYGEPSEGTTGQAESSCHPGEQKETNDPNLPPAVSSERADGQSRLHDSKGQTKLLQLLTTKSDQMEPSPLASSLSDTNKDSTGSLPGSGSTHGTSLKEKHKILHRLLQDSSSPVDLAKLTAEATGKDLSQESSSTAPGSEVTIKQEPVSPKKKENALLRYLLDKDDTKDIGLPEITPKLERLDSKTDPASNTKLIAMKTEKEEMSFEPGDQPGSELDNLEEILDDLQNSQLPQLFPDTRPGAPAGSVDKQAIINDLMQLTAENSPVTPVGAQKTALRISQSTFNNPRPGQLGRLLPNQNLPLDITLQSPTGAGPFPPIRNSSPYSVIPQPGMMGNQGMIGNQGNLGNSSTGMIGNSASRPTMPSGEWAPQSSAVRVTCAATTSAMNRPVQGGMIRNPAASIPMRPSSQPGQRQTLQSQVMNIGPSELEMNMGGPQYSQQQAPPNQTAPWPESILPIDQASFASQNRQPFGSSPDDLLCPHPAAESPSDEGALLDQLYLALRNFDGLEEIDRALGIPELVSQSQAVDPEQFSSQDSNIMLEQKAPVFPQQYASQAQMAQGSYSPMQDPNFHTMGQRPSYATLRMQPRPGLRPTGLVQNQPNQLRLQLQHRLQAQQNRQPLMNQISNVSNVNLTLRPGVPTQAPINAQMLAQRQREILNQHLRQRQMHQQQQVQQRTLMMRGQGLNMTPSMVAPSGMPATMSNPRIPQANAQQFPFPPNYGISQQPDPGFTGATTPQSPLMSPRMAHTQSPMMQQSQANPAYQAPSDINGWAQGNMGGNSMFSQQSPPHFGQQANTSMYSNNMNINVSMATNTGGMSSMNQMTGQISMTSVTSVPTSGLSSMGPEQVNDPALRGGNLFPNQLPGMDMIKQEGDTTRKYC
UniProt Q15435: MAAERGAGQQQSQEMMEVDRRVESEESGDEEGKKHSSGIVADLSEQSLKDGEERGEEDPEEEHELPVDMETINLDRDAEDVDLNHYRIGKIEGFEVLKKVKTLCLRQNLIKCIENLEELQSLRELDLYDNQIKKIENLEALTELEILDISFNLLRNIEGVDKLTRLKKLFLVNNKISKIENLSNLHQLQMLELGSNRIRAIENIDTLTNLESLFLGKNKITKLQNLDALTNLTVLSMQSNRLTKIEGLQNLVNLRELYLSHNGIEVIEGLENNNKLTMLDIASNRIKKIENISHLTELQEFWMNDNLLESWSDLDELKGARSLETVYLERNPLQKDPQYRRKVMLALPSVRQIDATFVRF
UniProt Q15935: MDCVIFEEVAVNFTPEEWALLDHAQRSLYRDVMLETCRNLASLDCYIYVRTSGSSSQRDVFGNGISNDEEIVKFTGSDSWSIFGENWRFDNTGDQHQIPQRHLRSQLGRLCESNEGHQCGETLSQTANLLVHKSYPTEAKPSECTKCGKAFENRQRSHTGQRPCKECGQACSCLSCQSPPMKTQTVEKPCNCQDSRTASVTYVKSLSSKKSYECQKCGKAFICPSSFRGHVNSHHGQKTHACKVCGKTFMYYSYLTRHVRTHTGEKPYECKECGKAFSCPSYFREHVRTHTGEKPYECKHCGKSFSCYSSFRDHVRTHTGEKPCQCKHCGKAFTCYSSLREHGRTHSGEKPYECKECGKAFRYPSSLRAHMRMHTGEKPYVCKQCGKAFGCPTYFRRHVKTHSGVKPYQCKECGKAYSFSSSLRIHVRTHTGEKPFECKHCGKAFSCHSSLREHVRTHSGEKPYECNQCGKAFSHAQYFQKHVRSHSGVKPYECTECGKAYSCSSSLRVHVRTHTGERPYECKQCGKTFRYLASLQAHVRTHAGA
UniProt Q15067: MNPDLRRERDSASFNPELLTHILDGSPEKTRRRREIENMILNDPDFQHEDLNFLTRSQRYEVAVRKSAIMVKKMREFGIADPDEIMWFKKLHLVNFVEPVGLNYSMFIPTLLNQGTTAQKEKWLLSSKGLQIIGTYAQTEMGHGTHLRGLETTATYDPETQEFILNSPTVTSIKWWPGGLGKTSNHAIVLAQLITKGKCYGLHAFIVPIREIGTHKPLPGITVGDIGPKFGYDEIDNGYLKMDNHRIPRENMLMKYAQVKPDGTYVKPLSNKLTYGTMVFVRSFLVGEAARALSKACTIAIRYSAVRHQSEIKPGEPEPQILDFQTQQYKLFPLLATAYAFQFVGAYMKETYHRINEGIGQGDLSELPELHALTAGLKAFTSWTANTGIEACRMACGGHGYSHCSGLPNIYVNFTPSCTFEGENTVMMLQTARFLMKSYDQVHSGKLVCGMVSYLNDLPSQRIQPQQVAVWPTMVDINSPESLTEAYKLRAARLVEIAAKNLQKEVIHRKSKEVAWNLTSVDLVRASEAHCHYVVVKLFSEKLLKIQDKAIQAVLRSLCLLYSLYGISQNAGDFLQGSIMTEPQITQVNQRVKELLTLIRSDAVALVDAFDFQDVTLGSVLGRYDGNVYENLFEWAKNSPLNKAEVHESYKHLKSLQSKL
UniProt Q155Q3: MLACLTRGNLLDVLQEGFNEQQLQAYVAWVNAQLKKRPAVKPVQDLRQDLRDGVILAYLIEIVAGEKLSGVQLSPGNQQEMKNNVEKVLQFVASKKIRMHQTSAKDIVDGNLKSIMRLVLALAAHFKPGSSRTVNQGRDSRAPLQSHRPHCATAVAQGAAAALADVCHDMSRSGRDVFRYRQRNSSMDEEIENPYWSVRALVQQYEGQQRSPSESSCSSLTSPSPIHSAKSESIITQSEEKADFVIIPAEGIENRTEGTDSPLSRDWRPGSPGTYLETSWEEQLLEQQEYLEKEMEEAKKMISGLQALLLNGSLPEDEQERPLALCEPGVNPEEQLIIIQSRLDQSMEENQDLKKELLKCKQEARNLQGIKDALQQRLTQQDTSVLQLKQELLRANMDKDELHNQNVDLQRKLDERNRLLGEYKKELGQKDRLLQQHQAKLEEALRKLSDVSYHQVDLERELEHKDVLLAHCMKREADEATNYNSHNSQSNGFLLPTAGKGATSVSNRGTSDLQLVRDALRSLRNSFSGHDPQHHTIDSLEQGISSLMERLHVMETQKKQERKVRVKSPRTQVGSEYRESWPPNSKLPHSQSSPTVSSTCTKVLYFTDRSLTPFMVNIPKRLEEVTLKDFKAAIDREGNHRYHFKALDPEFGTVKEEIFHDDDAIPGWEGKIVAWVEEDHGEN
UniProt Q3MIT2: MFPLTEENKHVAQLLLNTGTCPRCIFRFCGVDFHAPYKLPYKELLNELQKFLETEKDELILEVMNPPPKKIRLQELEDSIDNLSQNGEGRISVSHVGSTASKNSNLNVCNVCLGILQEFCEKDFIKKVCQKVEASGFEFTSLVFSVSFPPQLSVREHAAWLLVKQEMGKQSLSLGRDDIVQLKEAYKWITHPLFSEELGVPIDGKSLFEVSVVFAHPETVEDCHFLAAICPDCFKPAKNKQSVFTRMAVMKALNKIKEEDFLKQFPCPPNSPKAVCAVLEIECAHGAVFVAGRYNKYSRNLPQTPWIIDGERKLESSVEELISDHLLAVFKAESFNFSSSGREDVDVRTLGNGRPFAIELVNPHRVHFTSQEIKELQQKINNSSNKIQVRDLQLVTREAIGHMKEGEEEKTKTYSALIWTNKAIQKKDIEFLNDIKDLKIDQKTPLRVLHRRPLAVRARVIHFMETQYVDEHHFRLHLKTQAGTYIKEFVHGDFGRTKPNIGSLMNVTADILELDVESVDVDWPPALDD
UniProt Q15628: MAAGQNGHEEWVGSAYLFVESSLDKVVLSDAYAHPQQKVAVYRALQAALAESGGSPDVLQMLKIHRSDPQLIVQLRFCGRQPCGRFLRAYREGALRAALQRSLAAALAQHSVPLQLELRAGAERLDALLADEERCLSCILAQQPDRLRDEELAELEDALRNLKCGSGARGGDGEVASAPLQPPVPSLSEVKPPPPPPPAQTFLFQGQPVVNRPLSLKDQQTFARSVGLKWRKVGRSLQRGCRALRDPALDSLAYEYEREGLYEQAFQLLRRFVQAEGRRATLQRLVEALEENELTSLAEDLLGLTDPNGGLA
UniProt Q16533: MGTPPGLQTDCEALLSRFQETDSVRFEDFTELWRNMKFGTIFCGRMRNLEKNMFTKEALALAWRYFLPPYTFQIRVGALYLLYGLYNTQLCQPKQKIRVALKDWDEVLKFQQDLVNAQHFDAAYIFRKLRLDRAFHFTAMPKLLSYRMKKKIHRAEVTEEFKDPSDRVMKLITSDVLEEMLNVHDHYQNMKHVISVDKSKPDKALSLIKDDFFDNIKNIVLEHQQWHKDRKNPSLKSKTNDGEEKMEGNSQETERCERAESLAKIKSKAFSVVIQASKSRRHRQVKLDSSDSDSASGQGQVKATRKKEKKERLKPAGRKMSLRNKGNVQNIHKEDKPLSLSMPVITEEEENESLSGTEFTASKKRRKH
UniProt Q3KNV8: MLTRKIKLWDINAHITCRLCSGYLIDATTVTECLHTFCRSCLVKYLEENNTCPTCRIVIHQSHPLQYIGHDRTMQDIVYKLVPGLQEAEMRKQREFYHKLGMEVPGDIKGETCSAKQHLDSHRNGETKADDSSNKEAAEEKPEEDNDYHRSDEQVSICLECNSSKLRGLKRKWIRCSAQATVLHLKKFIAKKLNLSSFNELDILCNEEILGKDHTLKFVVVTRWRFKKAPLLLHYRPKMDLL
UniProt Q15072: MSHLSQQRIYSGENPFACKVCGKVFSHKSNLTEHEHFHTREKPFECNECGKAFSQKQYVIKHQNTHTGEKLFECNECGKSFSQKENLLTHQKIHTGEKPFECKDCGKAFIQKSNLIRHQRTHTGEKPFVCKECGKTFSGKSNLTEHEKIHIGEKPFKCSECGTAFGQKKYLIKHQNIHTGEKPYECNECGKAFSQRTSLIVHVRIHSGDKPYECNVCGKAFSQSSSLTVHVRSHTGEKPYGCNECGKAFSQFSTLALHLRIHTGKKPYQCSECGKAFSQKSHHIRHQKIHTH

Some of the results follow. Small differences around the control level are noise.

Compound in this assay: CN[C@@H]1C[C@H]2O[C@@](C)([C@@H]1OC)n1c3ccccc3c3c4c(c5c6ccccc6n2c5c31)C(=O)NC4 [staurosporine]
Description: log2 fold change of tryptic peptide abundance, ligand vs vehicle (limited proteolysis) (log2 ratio); higher = more trypsin-susceptible (destabilized). As to conditions: ligand concentration: 20 uM; sample: K562 cleared lysate; digestion: 4 min, 22 C (HT-PELSA RT4min, Orbitrap Astral).
Take “NCOA2 (peptide sequence: QMHQQQQVQQR, peptide start residue: 1251) (UniProt Q15596)”: the log2 fold change was -0.829.

For “PPP1R7 (peptide sequence: SLETVYLERNPLQKDPQYR, peptide start residue: 322) (UniProt Q15435)”, the log2 fold change is -0.455.

On to “ZNF77 (peptide sequence: AFICPSSFR, peptide start residue: 220) (UniProt Q15935)”, for which the log2 fold change is -0.261.

Turning to “ACOX1 (peptide sequence: TSNHAIVLAQLITK, peptide start residue: 183) (UniProt Q15067)”, the log2 fold change was 0.455.

Take “UniProt Q155Q3 (peptide sequence: ALVQQYEGQQR, peptide start residue: 200)”: the log2 fold change was -0.448.

In the case of “PUS10 (peptide sequence: KLESSVEELISDHLLAVFK, peptide start residue: 313) (UniProt Q3MIT2)”, the log2 fold change is 0.266.

Take “TRADD (peptide sequence: RFVQAEGR, peptide start residue: 271) (UniProt Q15628)”: the log2 fold change is -0.713.

Turning to “SNAPC1 (peptide sequence: MEGNSQETERCER, peptide start residue: 246) (UniProt Q16533)”, the log2 fold change is -0.944.

Regarding “PCGF3 (peptide sequence: LVPGLQEAEMR, peptide start residue: 81) (UniProt Q3KNV8)”, the log2 fold change worked out at 0.0884.

With “ZNF146 (peptide sequence: AFSQFSTLALHLR, peptide start residue: 248) (UniProt Q15072)”, the log2 fold change came to 0.331.
